Results published in doi:10.1101/2021.03.02.433619.
Results are given in words; binding and its absence hold for the method and conditions named. Binding seen in cells or lysates may run through a third protein. Some results given as binding are weak or reduced against the parent protein; the word gives no strength. Where a sequence is shown, tags or fusion partners need not be part of it.

T1: Flag-tagged human FAM57B (human) (UniProt Q71RH2)
T1 sequence: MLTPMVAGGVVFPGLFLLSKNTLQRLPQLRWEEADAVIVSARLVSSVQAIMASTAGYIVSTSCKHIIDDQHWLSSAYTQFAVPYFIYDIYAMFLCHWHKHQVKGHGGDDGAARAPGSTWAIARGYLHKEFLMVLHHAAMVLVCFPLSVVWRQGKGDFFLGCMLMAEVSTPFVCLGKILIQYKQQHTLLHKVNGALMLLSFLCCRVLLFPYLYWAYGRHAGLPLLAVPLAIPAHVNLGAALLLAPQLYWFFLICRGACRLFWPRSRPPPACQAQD


What follows are binders tested against T1, Flag-tagged human FAM57B (human) (assay: co-IP).

binding | Binder
binds | HA-tagged human CerS6 (enzyme, UniProt Q6ZMG9 1-384) MAGILAWFWNERFWLPHNVTWADLKNTEEATFPQAEDLYLAFPLAFCIFMVRLIFERFVAKPCAIALNIQANGPQIAPPNAILEKVFTAITKHPDEKRLEGLSKQLDWDVRSIQRWFRQRRNQEKPSTLTRFCESMWRFSFYLYVFTYGVRFLKKTPWLWNTRHCWYNYPYQPLTTDLHYYYILELSFYWSLMFSQFTDIKRKDFGIMFLHHLVSIFLITFSYVNNMARVGTLVLCLHDSADALLEAAKMANYAKFQKMCDLLFVMFAVVFITTRLGIFPLWVLNTTLFESWEIVGPYPSWWVFNLLLLLVQGLNCFWSYLIVKIACKAVSRGKVSKDDRSDIESSSDEEDSEPPGKNPHTATTTNGTSGTNGYLLTGSCSMDD
binds | HA-tagged human CerS5 (enzyme, UniProt Q8N5B7 1-392) MATAAQGPLSLLWGWLWSERFWLPENVSWADLEGPADGYGYPRGRHILSVFPLAAGIFFVRLLFERFIAKPCALCIGIEDSGPYQAQPNAILEKVFISITKYPDKKRLEGLSKQLDWNVRKIQCWFRHRRNQDKPPTLTKFCESMWRFTFYLCIFCYGIRFLWSSPWFWDIRQCWHNYPFQPLSSGLYHYYIMELAFYWSLMFSQFTDIKRKDFLIMFVHHLVTIGLISFSYINNMVRVGTLIMCLHDVSDFLLEAAKLANYAKYQRLCDTLFVIFSAVFMVTRLGIYPFWILNTTLFESWEIIGPYASWWLLNGLLLTLQLLHVIWSYLIARIALKALIRGKVSKDDRSDVESSSEEEDVTTCTKSPCDSSSSNGANRVNGHMGGSYWAEE
binds | HA-tagged human CerS2 (enzyme, UniProt Q96G23 1-380) MLQTLYDYFWWERLWLPVNLTWADLEDRDGRVYAKASDLYITLPLALLFLIVRYFFELYVATPLAALLNIKEKTRLRAPPNATLEHFYLTSGKQPKQVEVELLSRQSGLSGRQVERWFRRRRNQDRPSLLKKFREASWRFTFYLIAFIAGMAVIVDKPWFYDMKKVWEGYPIQSTIPSQYWYYMIELSFYWSLLFSIASDVKRKDFKEQIIHHVATIILISFSWFANYIRAGTLIMALHDSSDYLLESAKMFNYAGWKNTCNNIFIVFAIVFIITRLVILPFWILHCTLVYPLELYPAFFGYYFFNSMMGVLQLLHIFWAYLILRMAHKFITGKLVEDERSDREETESSEGEEAAAGGGAKSRPLANGHPILNNNHRKND
